Reference: the supplement of paper PMC6411743
± gives the standard deviation of the averaged measurements. The list shows a part of the results, in another mix than the full data.

Chains of the proteins cited; added tags and fusions are not shown. Lines headed by an entry give the natural chain unless they say otherwise; changes in a name come on top.
UniProt Q8IUR0, whole entry: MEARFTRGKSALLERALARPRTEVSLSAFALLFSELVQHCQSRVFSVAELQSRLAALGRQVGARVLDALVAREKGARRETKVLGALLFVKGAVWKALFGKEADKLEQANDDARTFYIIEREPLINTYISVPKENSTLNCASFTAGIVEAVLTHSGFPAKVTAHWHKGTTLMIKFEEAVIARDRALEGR
UniProt Q8N5K1: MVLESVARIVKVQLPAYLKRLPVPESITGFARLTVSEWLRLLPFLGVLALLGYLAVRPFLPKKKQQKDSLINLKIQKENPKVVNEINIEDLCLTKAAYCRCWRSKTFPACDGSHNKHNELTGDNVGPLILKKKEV
UniProt Q86VP6: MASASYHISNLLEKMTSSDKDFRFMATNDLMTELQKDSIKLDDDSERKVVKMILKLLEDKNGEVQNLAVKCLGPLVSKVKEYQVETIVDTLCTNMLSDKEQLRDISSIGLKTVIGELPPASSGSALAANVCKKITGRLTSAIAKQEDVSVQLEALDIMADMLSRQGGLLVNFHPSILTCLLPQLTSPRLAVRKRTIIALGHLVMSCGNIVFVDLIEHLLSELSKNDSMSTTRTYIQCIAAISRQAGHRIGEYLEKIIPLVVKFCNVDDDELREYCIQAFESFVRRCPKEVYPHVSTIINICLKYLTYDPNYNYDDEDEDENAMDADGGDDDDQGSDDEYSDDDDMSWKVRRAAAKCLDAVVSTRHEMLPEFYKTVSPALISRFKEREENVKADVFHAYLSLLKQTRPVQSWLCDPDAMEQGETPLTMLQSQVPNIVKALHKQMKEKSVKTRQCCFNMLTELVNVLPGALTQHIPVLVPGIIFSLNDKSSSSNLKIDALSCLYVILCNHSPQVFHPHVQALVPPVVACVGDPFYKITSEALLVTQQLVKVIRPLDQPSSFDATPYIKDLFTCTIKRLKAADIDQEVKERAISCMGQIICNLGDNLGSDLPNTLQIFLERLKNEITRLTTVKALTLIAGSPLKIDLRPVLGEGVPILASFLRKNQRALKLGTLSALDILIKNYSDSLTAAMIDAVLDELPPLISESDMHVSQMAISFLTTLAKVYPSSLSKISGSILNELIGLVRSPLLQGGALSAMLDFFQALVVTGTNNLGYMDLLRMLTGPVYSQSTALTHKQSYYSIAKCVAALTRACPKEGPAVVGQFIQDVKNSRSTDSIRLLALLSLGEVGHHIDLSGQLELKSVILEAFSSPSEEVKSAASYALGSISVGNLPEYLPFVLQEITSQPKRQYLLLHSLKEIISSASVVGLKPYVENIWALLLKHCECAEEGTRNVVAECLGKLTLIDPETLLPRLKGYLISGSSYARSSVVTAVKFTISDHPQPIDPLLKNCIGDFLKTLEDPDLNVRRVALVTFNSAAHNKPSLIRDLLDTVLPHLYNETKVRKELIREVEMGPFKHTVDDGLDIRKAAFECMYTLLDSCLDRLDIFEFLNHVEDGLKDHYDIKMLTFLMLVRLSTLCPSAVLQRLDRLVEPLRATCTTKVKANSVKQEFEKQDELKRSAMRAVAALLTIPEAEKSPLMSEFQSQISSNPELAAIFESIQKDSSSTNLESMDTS
UniProt Q86X76: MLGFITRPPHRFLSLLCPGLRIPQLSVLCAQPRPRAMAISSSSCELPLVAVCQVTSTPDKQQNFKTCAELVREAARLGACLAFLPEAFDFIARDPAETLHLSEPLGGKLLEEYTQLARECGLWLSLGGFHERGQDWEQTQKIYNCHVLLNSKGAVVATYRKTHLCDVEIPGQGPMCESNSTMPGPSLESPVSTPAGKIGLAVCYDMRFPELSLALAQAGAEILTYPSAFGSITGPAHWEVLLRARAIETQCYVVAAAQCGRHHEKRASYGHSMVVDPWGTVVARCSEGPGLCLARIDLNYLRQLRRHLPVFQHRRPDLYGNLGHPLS
UniProt Q8N201, whole entry: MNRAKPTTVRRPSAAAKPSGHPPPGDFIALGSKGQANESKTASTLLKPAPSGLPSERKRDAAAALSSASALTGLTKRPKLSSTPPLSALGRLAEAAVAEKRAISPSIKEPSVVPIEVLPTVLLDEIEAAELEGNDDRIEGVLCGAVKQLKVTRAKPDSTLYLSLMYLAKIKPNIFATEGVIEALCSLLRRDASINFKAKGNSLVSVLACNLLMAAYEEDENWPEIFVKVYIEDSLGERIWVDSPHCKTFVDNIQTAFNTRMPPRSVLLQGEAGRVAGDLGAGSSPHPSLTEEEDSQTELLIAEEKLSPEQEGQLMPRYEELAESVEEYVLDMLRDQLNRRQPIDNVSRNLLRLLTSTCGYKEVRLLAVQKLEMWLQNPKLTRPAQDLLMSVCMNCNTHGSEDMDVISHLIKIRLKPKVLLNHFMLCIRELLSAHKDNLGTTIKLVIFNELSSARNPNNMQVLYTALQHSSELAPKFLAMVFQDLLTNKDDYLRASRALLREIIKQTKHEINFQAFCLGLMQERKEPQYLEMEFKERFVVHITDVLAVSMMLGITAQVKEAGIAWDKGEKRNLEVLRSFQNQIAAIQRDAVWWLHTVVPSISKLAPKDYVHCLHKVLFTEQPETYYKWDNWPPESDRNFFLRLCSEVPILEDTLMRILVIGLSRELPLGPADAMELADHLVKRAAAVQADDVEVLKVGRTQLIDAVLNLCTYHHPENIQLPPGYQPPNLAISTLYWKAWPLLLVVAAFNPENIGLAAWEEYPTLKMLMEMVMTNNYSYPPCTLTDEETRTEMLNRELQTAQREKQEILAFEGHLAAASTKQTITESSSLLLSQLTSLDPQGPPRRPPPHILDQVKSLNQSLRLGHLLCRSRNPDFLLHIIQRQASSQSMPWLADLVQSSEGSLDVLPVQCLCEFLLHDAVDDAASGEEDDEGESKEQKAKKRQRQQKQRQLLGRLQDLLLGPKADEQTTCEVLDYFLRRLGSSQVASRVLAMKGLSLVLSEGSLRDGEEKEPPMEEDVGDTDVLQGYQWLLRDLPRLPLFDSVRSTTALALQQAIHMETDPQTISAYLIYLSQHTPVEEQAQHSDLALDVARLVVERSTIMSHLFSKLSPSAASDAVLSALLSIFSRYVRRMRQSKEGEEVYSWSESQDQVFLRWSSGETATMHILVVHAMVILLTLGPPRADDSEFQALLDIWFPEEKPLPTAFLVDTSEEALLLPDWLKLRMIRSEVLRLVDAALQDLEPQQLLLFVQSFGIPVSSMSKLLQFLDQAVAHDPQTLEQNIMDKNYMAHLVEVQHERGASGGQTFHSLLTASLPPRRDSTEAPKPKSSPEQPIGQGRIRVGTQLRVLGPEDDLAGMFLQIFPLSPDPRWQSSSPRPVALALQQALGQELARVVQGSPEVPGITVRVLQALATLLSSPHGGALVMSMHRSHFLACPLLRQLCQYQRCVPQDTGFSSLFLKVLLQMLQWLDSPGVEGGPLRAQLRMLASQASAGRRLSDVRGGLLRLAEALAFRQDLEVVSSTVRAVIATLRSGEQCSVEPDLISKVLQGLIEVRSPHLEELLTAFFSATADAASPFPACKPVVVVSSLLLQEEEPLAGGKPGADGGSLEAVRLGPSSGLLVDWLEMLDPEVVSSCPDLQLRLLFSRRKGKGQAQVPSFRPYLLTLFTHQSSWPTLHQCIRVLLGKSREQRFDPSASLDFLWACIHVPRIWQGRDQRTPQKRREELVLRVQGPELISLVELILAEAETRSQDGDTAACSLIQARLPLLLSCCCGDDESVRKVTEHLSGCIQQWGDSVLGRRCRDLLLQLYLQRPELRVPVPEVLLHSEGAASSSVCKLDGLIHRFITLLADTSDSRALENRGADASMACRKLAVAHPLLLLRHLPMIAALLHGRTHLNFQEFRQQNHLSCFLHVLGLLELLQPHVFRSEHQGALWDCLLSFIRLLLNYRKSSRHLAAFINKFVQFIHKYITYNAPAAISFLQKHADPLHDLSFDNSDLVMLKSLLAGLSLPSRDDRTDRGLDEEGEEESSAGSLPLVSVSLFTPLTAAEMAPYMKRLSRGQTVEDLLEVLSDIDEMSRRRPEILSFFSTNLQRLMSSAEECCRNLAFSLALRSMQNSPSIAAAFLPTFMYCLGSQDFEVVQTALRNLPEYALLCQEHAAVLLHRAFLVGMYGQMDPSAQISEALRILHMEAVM
UniProt Q8IY63: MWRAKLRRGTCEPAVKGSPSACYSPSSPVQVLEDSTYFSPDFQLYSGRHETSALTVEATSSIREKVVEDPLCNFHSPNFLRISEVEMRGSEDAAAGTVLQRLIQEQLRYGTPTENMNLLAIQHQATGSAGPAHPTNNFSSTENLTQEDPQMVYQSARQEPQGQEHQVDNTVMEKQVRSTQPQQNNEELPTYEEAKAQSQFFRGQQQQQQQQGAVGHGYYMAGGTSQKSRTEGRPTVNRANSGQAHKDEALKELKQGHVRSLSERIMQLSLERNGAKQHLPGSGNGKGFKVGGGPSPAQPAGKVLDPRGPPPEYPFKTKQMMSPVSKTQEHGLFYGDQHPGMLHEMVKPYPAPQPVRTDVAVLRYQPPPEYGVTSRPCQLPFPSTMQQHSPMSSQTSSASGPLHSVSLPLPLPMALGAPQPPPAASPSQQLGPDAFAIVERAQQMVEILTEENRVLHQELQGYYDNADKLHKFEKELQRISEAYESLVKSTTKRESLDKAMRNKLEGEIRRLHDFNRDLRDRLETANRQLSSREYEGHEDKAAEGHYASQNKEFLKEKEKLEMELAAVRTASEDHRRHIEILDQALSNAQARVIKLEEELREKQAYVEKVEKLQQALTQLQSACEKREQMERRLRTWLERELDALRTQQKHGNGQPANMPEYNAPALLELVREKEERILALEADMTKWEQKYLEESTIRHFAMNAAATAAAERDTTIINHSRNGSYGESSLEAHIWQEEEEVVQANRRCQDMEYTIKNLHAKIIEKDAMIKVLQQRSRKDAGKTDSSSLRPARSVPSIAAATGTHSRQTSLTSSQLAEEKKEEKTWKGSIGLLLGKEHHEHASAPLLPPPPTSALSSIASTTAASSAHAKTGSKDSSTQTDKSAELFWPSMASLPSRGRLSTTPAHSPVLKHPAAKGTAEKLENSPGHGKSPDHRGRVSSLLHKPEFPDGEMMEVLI
UniProt Q8N3X1: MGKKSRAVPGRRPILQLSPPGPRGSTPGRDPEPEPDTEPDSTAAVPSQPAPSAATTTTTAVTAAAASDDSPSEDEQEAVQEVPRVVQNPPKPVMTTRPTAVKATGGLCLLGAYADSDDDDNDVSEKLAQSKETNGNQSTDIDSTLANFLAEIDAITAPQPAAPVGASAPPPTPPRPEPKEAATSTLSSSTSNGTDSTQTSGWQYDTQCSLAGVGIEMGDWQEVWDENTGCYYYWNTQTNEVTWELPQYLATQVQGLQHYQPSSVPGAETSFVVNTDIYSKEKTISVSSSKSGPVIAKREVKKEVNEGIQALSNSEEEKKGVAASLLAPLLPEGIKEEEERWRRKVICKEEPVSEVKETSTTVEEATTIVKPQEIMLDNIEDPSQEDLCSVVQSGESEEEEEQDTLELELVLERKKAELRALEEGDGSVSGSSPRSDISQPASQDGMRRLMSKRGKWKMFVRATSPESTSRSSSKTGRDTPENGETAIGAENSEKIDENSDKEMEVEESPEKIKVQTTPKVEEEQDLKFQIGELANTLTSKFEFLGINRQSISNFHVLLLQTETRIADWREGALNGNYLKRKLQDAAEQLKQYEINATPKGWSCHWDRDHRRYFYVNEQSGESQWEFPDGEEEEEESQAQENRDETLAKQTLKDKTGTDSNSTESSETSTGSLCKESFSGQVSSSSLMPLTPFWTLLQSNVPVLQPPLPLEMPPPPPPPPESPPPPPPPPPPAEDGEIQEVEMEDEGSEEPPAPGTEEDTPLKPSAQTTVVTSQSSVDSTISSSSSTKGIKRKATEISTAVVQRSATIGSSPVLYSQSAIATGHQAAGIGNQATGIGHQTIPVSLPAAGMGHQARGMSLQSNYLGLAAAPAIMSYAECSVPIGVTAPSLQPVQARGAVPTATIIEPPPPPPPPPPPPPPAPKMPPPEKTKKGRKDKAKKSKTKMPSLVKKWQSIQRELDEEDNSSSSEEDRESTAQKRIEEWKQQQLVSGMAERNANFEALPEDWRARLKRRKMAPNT
UniProt Q8N4J0: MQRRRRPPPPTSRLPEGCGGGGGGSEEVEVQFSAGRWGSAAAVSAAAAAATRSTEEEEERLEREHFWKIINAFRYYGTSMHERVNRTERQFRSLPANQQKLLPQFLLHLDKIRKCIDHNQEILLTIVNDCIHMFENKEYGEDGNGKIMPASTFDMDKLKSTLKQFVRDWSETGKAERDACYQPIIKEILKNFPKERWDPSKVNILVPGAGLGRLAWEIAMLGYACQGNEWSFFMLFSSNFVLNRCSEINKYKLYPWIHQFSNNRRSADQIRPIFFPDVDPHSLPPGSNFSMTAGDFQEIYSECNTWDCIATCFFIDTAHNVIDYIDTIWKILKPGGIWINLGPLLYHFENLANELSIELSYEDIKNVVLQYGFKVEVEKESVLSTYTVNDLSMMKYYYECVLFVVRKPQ

Compound: Nc1ncnc2c1ncn2[C@@H]1O[C@H](COP(=O)(O)OP(=O)(O)NP(=O)(O)O)[C@@H](O)[C@H]1O [adenylyl imidodiphosphate]
Assay: NP40-soluble protein abundance relative to vehicle (solubility fold change) (ratio); higher = more soluble protein in presence of AMP-PNP
How it was run: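 Data come from three independent experiments in which Dounce-homogenised Jurkat crude lysate was treated at eight concentrations from 0.1 to 10 mM. Treatment ran 10 min at room temperature and then 3 min at 37 °C, after which 0.8% NP40 and benzonase were added for 60 min at 4 °C before ultracentrifugation. The supernatant underwent TMT labelling and LC-MS/MS, and vsn-normalised intensities were expressed as fold change against the detergent-processed vehicle in each replicate.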

Row | Target | NP40-soluble protein abundance (concentration: 1mM) | NP40-soluble protein abundance (concentration: 2mM) | NP40-soluble protein abundance (concentration: 4mM) | NP40-soluble protein abundance (concentration: 6mM) | NP40-soluble protein abundance (concentration: 8mM) | NP40-soluble protein abundance (concentration: 10mM)
1 | UniProt Q7Z7K6 and related entries | 1.08 ± 0.068 | 1.153 ± 0.0086 | 1.3 ± 0.087 | 1.51 ± 0.12 | 1.72 ± 0.052 | 2.1 ± 0.13
2 | RASAL3 (UniProt Q86YV0) | 1 ± 0.018 | 0.988 ± 0.028 | 1.01 ± 0.017 | 0.969 ± 0.03 | 0.969 ± 0.046 | 0.954 ± 0.019
3 | TRAPPC5 (UniProt Q8IUR0) | 0.946 ± 0.055 | 0.933 ± 0.043 | 0.959 ± 0.073 | 1.187 ± 0.002 | 1.18 ± 0.043 | 1.12 ± 0.13
4 | UniProt Q86TM6 and related entries | 0.97 ± 0.021 | 0.993 ± 0.075 | 0.996 ± 0.042 | 0.963 ± 0.026 | 0.987 ± 0.039 | 0.985 ± 0.037
5 | UniProt Q8IWI9 and related entries | 1.02 ± 0.023 | 1.01 ± 0.021 | 1.01 ± 0.047 | 0.953 ± 0.014 | 0.924 ± 0.029 | 0.944 ± 0.046
6 | CISD2 (UniProt Q8N5K1) | 1.02 ± 0.039 | 0.968 ± 0.02 | 0.991 ± 0.036 | 0.987 ± 0.069 | 1.01 ± 0.016 | 0.969 ± 0.039
7 | Q8N655 (UniProt Q96JN0) | 1.07 ± 0.013 | 1.08 ± 0.024 | 1.12 ± 0.04 | 1.13 ± 0.026 | 1.112 ± 0.0082 | 1.1104 ± 0.0011
8 | CAND1 (UniProt Q86VP6) | 0.971 ± 0.024 | 0.947 ± 0.03 | 0.983 ± 0.035 | 1.01 ± 0.084 | 1.03 ± 0.044 | 0.992 ± 0.058
9 | PTAR1 (UniProt Q7Z6K3) | 0.997 ± 0.029 | 1 ± 0.04 | 1.02 ± 0.018 | 1 ± 0.012 | 1.01 ± 0.029 | 0.985 ± 0.025
10 | UniProt Q7Z6L1 and related entries | 0.934 ± 0.02 | 0.973 ± 0.034 | 0.9552 ± 0.0059 | 0.945 ± 0.038 | 0.911 ± 0.022 | 0.9308 ± 0.0085
11 | UniProt Q86X76 and related entries | 1 ± 0.045 | 0.965 ± 0.032 | 1.03 ± 0.061 | 1.13 ± 0.12 | 1.15 ± 0.098 | 1.14 ± 0.06
12 | INTS1 (UniProt Q8N201) | 1.01 ± 0.043 | 0.995 ± 0.051 | 1.06 ± 0.037 | 1.05 ± 0.063 | 1.05 ± 0.072 | 1.07 ± 0.086
13 | UBR1 (UniProt Q8IWV7) | 1.01 ± 0.013 | 0.981 ± 0.071 | 0.993 ± 0.039 | 0.96 ± 0.012 | 0.955 ± 0.034 | 0.922 ± 0.021
14 | UniProt Q86TP1 and related entries | 1.05 ± 0.04 | 1.04 ± 0.031 | 1.021 ± 0.0092 | 0.995 ± 0.047 | 1.01 ± 0.054 | 0.974 ± 0.034
15 | UniProt Q8IX12 and related entries | 0.983 ± 0.015 | 0.9936 ± 0.0086 | 1.01 ± 0.046 | 1 ± 0.05 | 0.985 ± 0.045 | 1.02 ± 0.058
16 | WDFY1 (UniProt Q8IWB7) | 1.01 ± 0.052 | 0.959 ± 0.023 | 0.99 ± 0.054 | 0.988 ± 0.029 | 1.04 ± 0.037 | 0.992 ± 0.043
17 | UniProt Q8IY63 and related entries | 0.997 ± 0.039 | 1.02 ± 0.032 | 1.02 ± 0.055 | 1.01 ± 0.051 | 1.01 ± 0.049 | 0.998 ± 0.047
18 | ZNF579 (UniProt Q8NAF0) | 1.02 ± 0.069 | 1.04 ± 0.091 | 1.01 ± 0.056 | 1.06 ± 0.076 | 1.05 ± 0.058 | 1.04 ± 0.085
19 | UniProt Q86UX7 and related entries | 0.963 ± 0.059 | 0.875 ± 0.075 | 0.958 ± 0.029 | 0.968 ± 0.065 | 1.02 ± 0.03 | 0.955 ± 0.03
20 | UniProt Q8NBP0 and related entries | 0.998 ± 0.019 | 0.97 ± 0.025 | 0.9847 ± 0.0052 | 0.984 ± 0.025 | 0.992 ± 0.032 | 0.991 ± 0.027
21 | UniProt Q86VR2 | 0.989 ± 0.0052 | 0.966 ± 0.024 | 0.977 ± 0.025 | 0.976 ± 0.015 | 0.9994 ± 0.002 | 0.952 ± 0.01
22 | UniProt Q8N3X1 and related entries | 1.04 ± 0.042 | 1.12 ± 0.093 | 1.21 ± 0.11 | 1.45 ± 0.15 | 1.49 ± 0.17 | 1.58 ± 0.24
23 | UniProt Q8N4J0 | 0.96 ± 0.036 | 0.903 ± 0.043 | 0.95 ± 0.018 | 0.978 ± 0.07 | 1.02 ± 0.048 | 0.973 ± 0.04
24 | UniProt Q8IZM8 | 1.03 ± 0.015 | 1.05 ± 0.032 | 1 ± 0.016 | 1.01 ± 0.025 | 1 ± 0.018 | 1.01 ± 0.019
25 | ITPRIP (UniProt Q8IWB1) | 0.983 ± 0.019 | 0.9835 ± 0.0071 | 0.99259 ± 0.00082 | 0.993 ± 0.011 | 0.982 ± 0.048 | 0.977 ± 0.04
26 | UniProt Q8NB37 | 0.98 ± 0.017 | 0.967 ± 0.016 | 0.991 ± 0.03 | 0.991 ± 0.03 | 0.994 ± 0.019 | 0.996 ± 0.018
27 | C12orf29 (UniProt Q8N999) | 0.995 ± 0.05 | 0.965 ± 0.04 | 0.967 ± 0.028 | 0.983 ± 0.028 | 0.969 ± 0.024 | 0.97 ± 0.028
28 | PRPF38A (UniProt Q8NAV1) | 1 ± 0.021 | 1.03 ± 0.06 | 1.03 ± 0.034 | 1.02 ± 0.044 | 1.02 ± 0.018 | 1.02 ± 0.043
29 | UniProt Q86X55 and related entries | 0.939 ± 0.021 | 0.836 ± 0.12 | 0.902 ± 0.029 | 0.902 ± 0.032 | 0.926 ± 0.018 | 0.864 ± 0.015
30 | UniProt Q8IY95 and related entries | 1.01 ± 0.03 | 1.04 ± 0.03 | 0.983 ± 0.046 | 0.9721 ± 0.0046 | 0.959 ± 0.03 | 0.954 ± 0.015

A different layout for part of the listing above:
Row	Target	NP40-soluble protein abundance (concentration: 1mM)	NP40-soluble protein abundance (concentration: 2mM)	NP40-soluble protein abundance (concentration: 4mM)	NP40-soluble protein abundance (concentration: 6mM)	NP40-soluble protein abundance (concentration: 8mM)	NP40-soluble protein abundance (concentration: 10mM)
14	UniProt Q86TP1 and related entries	1.05 ± 0.04	1.04 ± 0.031	1.021 ± 0.0092	0.995 ± 0.047	1.01 ± 0.054	0.974 ± 0.034
26	UniProt Q8NB37	0.98 ± 0.017	0.967 ± 0.016	0.991 ± 0.03	0.991 ± 0.03	0.994 ± 0.019	0.996 ± 0.018
